Values quoted from earlier work as cited in US20160169850A1, “SENSOR MOLECULE” (University of Malta, priority 2014, published 2016).
Some of these results come from one statement about several compounds together.

Details: previously reported two-input Pourbaix sensors; cited from earlier work

## CN(CC1=CSC(=C2SC=CS2)S1)Cc1c2ccccc2cc2ccccc12 [Compound 2]
  quantum yield of fluorescence, previously reported: ≤ 2%
